Reference: PubChem BioAssay AID493014 (National Center for Advancing Translational Sciences (NCATS), 2011)
Hit rate of the full screen: of about 340,000 compounds, about 170 (0.05%) were called active. Inconclusive results, whose numbers are uncertain, are shown with a selection of clear calls. Calls come from the whole dose curve; as a rule, active = well fitted inhibition curve with a large enough effect in the signal ratio, with a control signal flat (not every such curve was filed as active); inconclusive = small, poorly fitted or top-dose-only effect, or effect the other way, or a change in a side signal; inactive = flat fitted curve, though single readings scatter; the % refers to the signal ratio. Potencies beside an inconclusive call are fits to weak or partial responses and may not hold up.

assay: qHTS Assay to Find Inhibitors of Chronic Active B-Cell Receptor Signaling; details: ABC-DLBCL IkBa-CBG/CBR reporter, luminescence ratio (green luciferase fused to IkBa over red control in TMD8 lymphoma cells), 4 h; activity change, negative = inhibition: at 46.1 µM (top of the series);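 for activity change, negative = inhibition: plate controls were basal doxycycline-induced cells for no effect and cells given 10 µM MG132 for full effect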
Summary of the method: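 Compounds up to 46 uM were incubated four hours with TMD8 cells whose green CBG68 luciferase is fused to IkappaBalpha; red CBR luminescence normalised the signal, and concentration-effect curves were fitted to fusion, red and ratio data.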
Potency is the fitted concentration of half-maximal effect.

| Structure (SMILES) | activity change, negative = inhibition | Potency |
| --- | --- | --- |
| CCOc1ccc(/C=C/C2=Cc3c(sc(NC(=O)CSc4n[nH]c(N)n4)c3C#N)C(C)(C)C2)cc1 | inactive | – |
| O=C(/C=C/c1cccs1)Nc1ccncc1 | – | inconclusive: 20.6 µM [falling, single point] |
| COc1ccc([C@H]2CC(=O)C=C(c3ccc4[nH]ccc4c3)C2)cc1OC | inconclusive: -4.88% | – |
| O=c1c2c(nc3c(-c4ccccc4)c[nH]n13)CCCC2 | – | inconclusive: 5.17 µM [falling, partial curve] |
| CCC(=O)N1CCN(c2nc(-c3ccccc3)c3c(c2C#N)CCCC3)CC1 | inconclusive: 12.9% | – |
| CCc1nnc(NC(=O)COc2ccc3c(c2)OCO3)s1 | inactive | – |
| CCOC(=O)N1CCC(NC(=O)CSCc2nc(-c3ccc(OC)cc3)oc2C)CC1 | inactive | – |
| COc1ccc(Cl)cc1C(=O)NNC(=O)C1COc2ccccc2O1 (centres undefined) | – | inconclusive: 5.62 µM [rising, full curve, poor fit] |
| O=C(Nc1ccc(F)c(F)c1)c1ccco1 | inconclusive: -11.3% | – |
| O=C(NCC(c1ccco1)N1CCCC1)c1ccccc1Sc1ccc(C(F)(F)F)cc1[N+](=O)[O-] (centres undefined) | inconclusive: -20.5% | – |
| CC(=O)c1ccc(S(=O)(=O)Nc2ccc(-c3ccc4nnc(C)n4n3)cc2)cc1 | inconclusive: -7.63% | – |
| CCCCNS(=O)(=O)c1ccc(NC(=O)C2c3ccccc3Oc3ccccc32)cc1 | inconclusive: -6.64% | – |
| COc1ccc2[nH]c(C(=O)O)c(CCNC(C)=O)c2c1 | inconclusive: 0.539% | – |
| Oc1cccc(C=Nc2cccc3ccccc23)c1O | inconclusive: 5.78% | – |
| NC(=O)CC(NSc1ccccc1[N+](=O)[O-])C(=O)O (centres undefined) | inactive | – |
| Cc1cc(N2CCN(C)CC2)nc2ccc(NC(=O)CCC(=O)NCCc3ccc(Cl)cc3)cc12 | inactive | – |
| O=C(CCCc1nc2ccccc2s1)NNC(=O)CCN1CCN(Cc2ccccc2)CC1 | inconclusive: 0.687% | – |
| Cc1ccc(Nc2c(-c3ccccn3)nc3cc(C)ccn23)cc1 | – | inconclusive: 15.8 µM [falling, partial curve] |
| COc1ccc(CCNC(=O)CSc2cn(Cc3cccc(C)c3)c3ccccc23)cc1OC | – | inconclusive: 32.6 µM [falling, partial curve, poor fit] |
| Cc1ccc(/C=N/NC(=O)c2cccnc2)s1 | – | inconclusive: 35.5 µM [falling, single point] |
| COC(=O)COc1ccc(S(=O)(=O)Nc2cc([N+](=O)[O-])ccc2C)cc1 | inconclusive: -3.58% | – |

| Structure (SMILES) | activity change, negative = inhibition | Potency |
| --- | --- | --- |
| CC(=O)Nc1ccc(S(=O)(=O)N[C@@H](C)C(=O)OCC(=O)NC2CCCC2)cc1 | inconclusive: 4.91% | – |
| CCC1CCCCN1C(=O)CN1C(=O)c2ccccc2S1(=O)=O (centres undefined) | inconclusive: 2.42% | – |
| CCOC(=O)c1ccc(NS(=O)(=O)N2CCCCCC2)cc1 | inconclusive: -3.23% | – |
| O=C(C1COc2ccccc2O1)N1CCN(c2ccccc2O)CC1 (centres undefined) | inconclusive: 1.25% | – |
| CCn1c(=O)c(C(=O)NCc2ccc(OC)cc2)c(O)c2ccccc21 | inconclusive: -12.5% | – |
| COc1nc(-c2ccccc2)nc(C)c1CC(=O)O | inactive | – |
| CCC(CCC(=O)Nc1ccn(-c2ccccc2)n1)C(=O)O (centres undefined) | – | inconclusive: 29.1 µM [falling, single point] |
| CN(C)C(=S)SCC(=O)Nc1cccc(C(F)(F)F)c1 | inconclusive: -2.42% | – |
| CCOC(=O)/C(=C/c1ccc(OC(=O)c2ccncc2)cc1)C(C)=O | inconclusive: -5.91% | – |
| Cn1nnnc1SCC(=O)Nc1nc2ccccc2s1 | – | inconclusive: 35.5 µM [falling, single point] |
| Cc1cc(-c2[nH]nc3c2C(c2ccsc2)C(C#N)=C(N)O3)c(C)s1 (centres undefined) | inconclusive: 13.6% | – |
| COc1ccc(NC(=S)NC(NC(=O)c2ccc(Cl)cc2Cl)C(Cl)(Cl)Cl)c([N+](=O)[O-])c1 (centres undefined) | inconclusive: 26.6% | – |
| C/C(=N\NC(=O)c1ccc(Cl)c(Cl)c1)c1ccc(Br)s1 | inactive | – |
| COc1ccc([N+](=O)[O-])cc1NC(=O)C(C)OC(=O)C1CCCC1 (centres undefined) | inactive | – |
| O=C(CCC1COc2ccccc2O1)Nc1ccccn1 (centres undefined) | inconclusive: 7.49% | – |
| CC(=O)COC(=O)c1ccc2noc(-c3ccccc3)c2c1 | – | inconclusive: 5.62 µM [falling, partial curve] |
| CCCCCOC(=O)NC1CCS(=O)(=O)C1 (centres undefined) | inconclusive: -1.45% | – |
| CC(C)(C)C(=O)Cn1ncc(N2CCCC2)c(Br)c1=O | inconclusive: 10.5% | – |
| CCOC(=O)c1c(CN2CCOCC2)n(C)c2cc(Br)c(O)c(CN(C)C)c12 | inconclusive: -0.504% | – |
| O=C(Nc1ccc2nc(-c3ccc(Br)o3)[nH]c2c1)c1cccs1 | inconclusive: -0.613% | – |
| CCOc1ccc(C2N(c3ccc(F)cc3)C(=O)C3CCCN32)cc1OC (centres undefined) | inconclusive: -3.26% | – |

| Structure (SMILES) | activity change, negative = inhibition | Potency |
| --- | --- | --- |
| Nc1n[nH]c(-c2ccc([N+](=O)[O-])cc2[N+](=O)[O-])n1 | inconclusive: 24.7% | – |
| CCCCCCn1c(N2CCCC2)nc2c1c(=O)n(C)c(=O)n2C | inconclusive: -5.4% | – |
| COc1cc([N+](=O)[O-])cc(/C=N\NC(=O)C2COc3ccccc3O2)c1O (centres undefined) | – | inconclusive: 25.1 µM [falling, single point] |
| Cc1nn(-c2ccccc2)c(C)c1-c1cc(C(=O)N/N=C/c2ccc(O)cc2)[nH]n1 | inconclusive: -9.5% | – |
| O=C(Nc1ccccn1)c1ccc2c(c1)OCO2 | – | inconclusive: 14.1 µM [falling, single point] |
| N#Cc1sc(NCc2ccccn2)nc1Cl | inconclusive: 1.97% | – |
| COc1ccc2c(c1)O[C@H](c1ccc3c(c1)OCO3)[C@@H](OC(=O)Nc1cc(OC)c(OC)c(OC)c1)C2=O | inconclusive: -16.3% | – |
| COC(=O)[C@@H](Cc1c[nH]c2ccccc12)NC(=O)c1cc(=O)[nH]c2ccccc12 | inactive | – |
| C[C@H]1COC(=O)[C@H](Cc2ccc(F)cc2)CC/C=C/C[C@@H](CC(=O)N(CCO)Cc2ccccc2)C(=O)N1 | inactive | – |
| O=c1c2ccccc2c(C=Nc2cccc(O)c2)c(O)n1-c1ccc2c(c1)OCO2 | inconclusive: 12.2% | – |
| COc1ccccc1-n1c(CCC(=O)O)ccc1-c1ccccc1 | inactive | – |
| Cc1ccccc1C(=O)Nc1ccc(C(=O)N/N=C/c2ccncc2)cc1 | inconclusive: -8.82% | – |
| CN(C(=O)CSc1n[nH]c(N)n1)C1CCCCC1 | inconclusive: 5.96% | – |
| O=C1Nc2ccccc2C12OCC1(CO2)COC2(OC1)C(=O)Nc1ccccc12 (centres undefined) | inconclusive: -4.81% | – |
| Cc1cc(NC(=O)COc2ncnc3sc(C)c(C)c23)no1 | inconclusive: 0.408% | – |
| COc1ccc(C(=O)N2CCN(c3ccccn3)CC2)cc1 | inactive | – |
| COC(=O)c1cc(Br)cn1S(=O)(=O)c1ccccc1 | inconclusive: 2.56% | – |
| CCCNC(=S)N1CCC(C(=O)c2ccc(Cl)cc2)CC1 | inactive | – |
| COc1cc(/C=C2/C(=O)NN(c3ccc(Cl)cc3)C2=O)ccc1OC(=O)c1ccco1 | inconclusive: -17.1% | – |
| CC(C)Sc1nsc2nc(=O)c(/C=C3\C=Nc4ccccc43)c(N)n12 | inconclusive: 7.94% | – |
| CCCc1cc(C(=O)Nc2ccc(C(=O)OC)cc2)cs1 | – | inconclusive: 2.24 µM [falling, full curve, poor fit] |

Some of the entries so far, with bars between the fields.
Structure (SMILES) | activity change, negative = inhibition | Potency
CC(C)(C)C(=O)Cn1ncc(N2CCCC2)c(Br)c1=O | inconclusive: 10.5% | –
CCOC(=O)c1c(CN2CCOCC2)n(C)c2cc(Br)c(O)c(CN(C)C)c12 | inconclusive: -0.504% | –
O=C(Nc1ccc2nc(-c3ccc(Br)o3)[nH]c2c1)c1cccs1 | inconclusive: -0.613% | –
CCOc1ccc(C2N(c3ccc(F)cc3)C(=O)C3CCCN32)cc1OC (centres undefined) | inconclusive: -3.26% | –
Nc1n[nH]c(-c2ccc([N+](=O)[O-])cc2[N+](=O)[O-])n1 | inconclusive: 24.7% | –
CCCCCCn1c(N2CCCC2)nc2c1c(=O)n(C)c(=O)n2C | inconclusive: -5.4% | –
COc1cc([N+](=O)[O-])cc(/C=N\NC(=O)C2COc3ccccc3O2)c1O (centres undefined) | – | inconclusive: 25.1 µM [falling, single point]
Cc1nn(-c2ccccc2)c(C)c1-c1cc(C(=O)N/N=C/c2ccc(O)cc2)[nH]n1 | inconclusive: -9.5% | –
O=C(Nc1ccccn1)c1ccc2c(c1)OCO2 | – | inconclusive: 14.1 µM [falling, single point]
N#Cc1sc(NCc2ccccn2)nc1Cl | inconclusive: 1.97% | –
COc1ccc2c(c1)O[C@H](c1ccc3c(c1)OCO3)[C@@H](OC(=O)Nc1cc(OC)c(OC)c(OC)c1)C2=O | inconclusive: -16.3% | –
COC(=O)[C@@H](Cc1c[nH]c2ccccc12)NC(=O)c1cc(=O)[nH]c2ccccc12 | inactive | –
C[C@H]1COC(=O)[C@H](Cc2ccc(F)cc2)CC/C=C/C[C@@H](CC(=O)N(CCO)Cc2ccccc2)C(=O)N1 | inactive | –
O=c1c2ccccc2c(C=Nc2cccc(O)c2)c(O)n1-c1ccc2c(c1)OCO2 | inconclusive: 12.2% | –
COc1ccccc1-n1c(CCC(=O)O)ccc1-c1ccccc1 | inactive | –
Cc1ccccc1C(=O)Nc1ccc(C(=O)N/N=C/c2ccncc2)cc1 | inconclusive: -8.82% | –
CN(C(=O)CSc1n[nH]c(N)n1)C1CCCCC1 | inconclusive: 5.96% | –
O=C1Nc2ccccc2C12OCC1(CO2)COC2(OC1)C(=O)Nc1ccccc12 (centres undefined) | inconclusive: -4.81% | –
Cc1cc(NC(=O)COc2ncnc3sc(C)c(C)c23)no1 | inconclusive: 0.408% | –
COc1ccc(C(=O)N2CCN(c3ccccn3)CC2)cc1 | inactive | –
COC(=O)c1cc(Br)cn1S(=O)(=O)c1ccccc1 | inconclusive: 2.56% | –
CCCNC(=S)N1CCC(C(=O)c2ccc(Cl)cc2)CC1 | inactive | –
COc1cc(/C=C2/C(=O)NN(c3ccc(Cl)cc3)C2=O)ccc1OC(=O)c1ccco1 | inconclusive: -17.1% | –

The results go on:

| Structure (SMILES) | activity change, negative = inhibition | Potency |
| --- | --- | --- |
| COc1ccccc1NC(=O)c1ccc(S(=O)(=O)N2CCCC2)cc1 | inactive | – |
| C=CCn1c(SCC(=O)N2CCOCC2)nc2sc3c(c2c1=O)CCCC3 | inconclusive: -1.81% | – |
| Cc1cc(NC(=O)CSc2nnc(-c3ccccc3)n2Cc2ccco2)no1 | inconclusive: 11.6% | – |
| Cc1c(Cl)cnc(NC(=O)COC(=O)c2ccc3ncsc3c2)c1Cl | inconclusive: -6.75% | – |
| Cc1ccc(OCC(=O)Nc2ccc(N3CCN(C(=O)c4ccco4)CC3)cc2)cc1 | inactive | – |
| CC(C)(C)OC(=O)NCCCCCNC(=O)c1ncn(Cc2ccccc2)c1C(=O)NCCCCCNC(=O)OC(C)(C)C | inactive | – |
| CC(=O)Nc1ccc(OCC(O)CN2CCN(c3ccc(C)c(Cl)c3)CC2)cc1 (centres undefined) | inactive | – |
| COc1cccc(CN(C)C(=O)c2cccc(OCc3ccccc3)c2)c1 | inconclusive: -14.3% | – |
| CCOC(=O)N1CCC(NC(=O)c2ccc3c(c2)sc2nc(-c4ccccc4)cn23)CC1 | – | inconclusive: 0.355 µM [rising, full curve, poor fit] |
| CCS(=O)(=O)c1ccc2oc(SCC(=O)Nc3ccc(OC)cc3OC)nc2c1 | inconclusive: 4.61% | – |
| CC(=O)c1c(NCCc2ccccc2)nc(=S)n(-c2ccccc2)c1C | inconclusive: 7.04% | – |
| Cc1ccc(CN2[C@@H](c3ccccc3)COCCS2(=O)=O)cc1 | inactive | – |
| CCOC(NC(=O)c1ccccc1)C(NC(=O)c1ccccc1)OCC (centres undefined) | inconclusive: -1.25% | – |
| O=C1N(c2ccc(Cl)cc2)C(c2ccccc2)N2CCCN12 (centres undefined) | – | inconclusive: 3.26 µM [falling, single point] |
| CC(OC(=O)CNC(=O)c1ccccc1F)C(=O)Nc1nc(-c2ccccc2)cs1 (centres undefined) | inconclusive: 8.25% | – |
| COc1ccc(N2CCC(CNC(=S)Nc3c(C)cc(C)cc3C)C2)cc1 (centres undefined) | inactive | – |
| Fc1ccc(CNCc2ccccc2Cl)cc1 | inactive | – |
| NC(=O)NC(=O)COC(=O)c1ccccc1OCc1ccc(F)cc1 | inconclusive: 5.71% | – |
| CC(C)CNS(=O)(=O)c1ccc(CCC(=O)N2CCC(C(N)=O)CC2)cc1 | inactive | – |
| Cc1ccc(/C=N/n2cc(-c3ccccc3)[nH]c2=S)s1 | inconclusive: -15.1% | – |
| Cc1csc(NC(=O)c2ccccc2O)n1 | – | inconclusive: 35.5 µM [rising, single point] |
